# Screening data, single-dose tests

Sequences of proteins named here, by UniProt entry; tags and fusion partners are left off. Residues count along the entry.
UniProt P9WFT3, whole entry: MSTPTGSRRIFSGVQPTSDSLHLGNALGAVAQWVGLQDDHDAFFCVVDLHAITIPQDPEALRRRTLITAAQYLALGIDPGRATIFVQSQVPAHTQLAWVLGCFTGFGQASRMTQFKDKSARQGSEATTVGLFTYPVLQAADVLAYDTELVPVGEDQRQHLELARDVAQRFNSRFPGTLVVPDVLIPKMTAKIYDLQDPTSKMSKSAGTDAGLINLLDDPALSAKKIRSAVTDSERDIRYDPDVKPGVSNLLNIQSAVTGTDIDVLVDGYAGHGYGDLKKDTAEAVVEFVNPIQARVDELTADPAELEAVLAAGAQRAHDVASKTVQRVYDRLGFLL
UniProt A4I591, 1-473: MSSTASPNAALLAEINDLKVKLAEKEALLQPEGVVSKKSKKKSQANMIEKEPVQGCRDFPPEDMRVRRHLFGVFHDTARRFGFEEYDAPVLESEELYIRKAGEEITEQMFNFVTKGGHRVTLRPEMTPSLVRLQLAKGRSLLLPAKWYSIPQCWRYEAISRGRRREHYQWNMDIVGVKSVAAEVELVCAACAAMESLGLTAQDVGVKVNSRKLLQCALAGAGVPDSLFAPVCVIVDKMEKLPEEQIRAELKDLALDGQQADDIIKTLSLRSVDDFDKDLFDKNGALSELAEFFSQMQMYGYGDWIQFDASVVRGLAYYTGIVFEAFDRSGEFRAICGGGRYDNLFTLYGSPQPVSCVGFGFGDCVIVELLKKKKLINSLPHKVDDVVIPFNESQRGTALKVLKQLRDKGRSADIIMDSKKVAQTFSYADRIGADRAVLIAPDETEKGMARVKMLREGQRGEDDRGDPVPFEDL

Measurements from “University of Dundee, Small-Polar-MMV Screening Library” (2021), ChEMBL document CHEMBL3988442.

Results are given as percent effect. How 0% and 100% were set is not recorded. Most values in the screen are low, and negative values occur. This is an unselected part of the compounds tested. A dash means the value is not listed here; it may have been measured.

MtTrpRS: 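Tryptophan-tRNA ligase, Mycobacterium tuberculosis (UniProt P9WFT3). Enzyme assay of tryptophanyl-tRNA synthetase; the read-out is not stated. Concentration: 10 µM. Higher most likely means stronger inhibition; the record gives no direction and few retests gave an IC50. Size under these conditions: about 65,000 compounds, about 64 of them at 50% or above in at least one test.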
LiHisRS: 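Histidine-tRNA ligase, Leishmania infantum (UniProt A4I591). Enzyme assay of histidyl-tRNA synthetase; the read-out is not stated. Concentration: 30 µM. Direction is inferred from retests: higher values go with stronger inhibition. The assay is labelled LdHisRS but filed under L. infantum. Of about 69,000 compounds tested this way, about 410 (0.6%) reached 50% or more in at least one test.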

structure,MtTrpRS,LiHisRS
COC(=O)CNc1cc(C(=O)NCC(F)(F)F)cc(F)c1C,-0.9372,18.75
CN(C)c1cccc(C2CCCN2S(N)(=O)=O)c1 (stereo unspecified),3.406,17.14
C[C@@H]1C[C@H]2CN(C(=O)c3cccc4c3OCCO4)C[C@H]2O1,-4.554,8.547
CC(C)NC(=O)N1CCN(Cc2ccccn2)CC2(CC(=O)N(C)C2)C1 (stereo unspecified),-2.824,9.756
CC(C)n1[nH]c(=O)c2c1NC(=O)CSC2c1ccc(OCC(N)=O)cc1 (stereo unspecified),4.408,12.41
O=C(c1cc(C2CC2)[nH]n1)N1CCCC(n2cncn2)C1 (stereo unspecified),0.3712,-2.128
Cc1nc(C)n(CC2CCCN2Cc2cn3ccccc3c2C#N)n1 (stereo unspecified),-0.4289,12.5
Cc1nn(C)c(N(C)C)c1CNCc1cnn(Cc2ccccc2)c1,-8.883,11.48
CCC(=O)Nc1cccc(OCC(=O)N(C)Cc2cc(COC)[nH]n2)c1,-1.911,12.9
C=Cc1ccc(C(=O)N2CCCC(Nc3ccccc3)C2)cc1 (stereo unspecified),0.3623,15.2
O=C(CCn1ccc2ccccc21)N1CCC(Nc2cccnc2)CC1,1.653,19.35
Cc1cc2ccccc2n1CC(=O)NC(C)C(=O)N1CCOCC1 (stereo unspecified),4.45,25.84
COC1CCC[C@@H]2CN(Cc3csc(C)n3)C[C@H]12 (stereo partly specified),-10.22,20
CCN1C[C@H]2CCN(C(=O)Cc3cccc(OC)c3)CC[C@H]2S1(=O)=O,-,19.23
Cc1cc(S(=O)(=O)NC(=O)CCc2cncc(F)c2)c(C)s1,-1.899,13.51
Cc1ccc(-c2nc(CNCC3CN(C)CCO3)co2)c(C)c1 (stereo unspecified),-12.52,17.86
Cc1nn(-c2ccccc2)c(C)c1CC(=O)NC1CC(=O)N(C)C1 (stereo unspecified),-2.006,16
COCCN1CC[C@H]2CN(Cc3ccc(C)s3)C[C@@H]2C1=O,-5.814,7.692
CCc1nccn1C1CCCN(C(=O)c2cncn2-c2ccccc2)C1 (stereo unspecified),3.462,5.66

The first 2 entries again:

structure	MtTrpRS	LiHisRS
COC(=O)CNc1cc(C(=O)NCC(F)(F)F)cc(F)c1C	-0.9372	18.75
CN(C)c1cccc(C2CCCN2S(N)(=O)=O)c1 (stereo unspecified)	3.406	17.14